# In the supplement of paper PMC12578635:
# This is one part of the list. Cut-off read from the data, not from the text of the source: active = 150% or more and inactive = the rest. Many values rest on one well or one pass, so single values are uncertain.
# Tested on: Staphylococcus aureus JE2-lux inside RAW 264.7 macrophages
# Test: intracellular bacterial bioluminescence relative to DMSO vehicle; higher = higher intracellular bacterial metabolic activity
# Conditions: 10 µM; treatment time 4 h; gentamicin 50 µg/ml
# Description: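 RAW 264.7 macrophages infected with bioluminescent MRSA JE2-lux (MOI 100) were dispensed into 384-well plates with 10 µM compound in the presence of 50 µg/ml gentamicin. After 4 h at 37 °C, bacterial bioluminescence (a proxy for intracellular bacterial metabolic activity) and host cell viability (CellTiter-Fluor) were read and normalised to 0.1% DMSO vehicle controls. Single-pass screen of the UNC CICBDD kinase-targeted library (>4,700 compounds).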
row,SMILES,intracellular bacterial bioluminescence
1,COC(=O)C1=C(N)Oc2cc(C)n(Cc3ccccc3)c(=O)c2C12C(=O)N(C)c1ccccc12 (stereo not given),inactive: 87.5%
2,O=C(C(=O)N1CCC2(CC1)OCCO2)c1c[nH]c2ccccc12,inactive: 107%
3,CCCCn1c(=S)[nH]c(O)c(C2=NN(C(C)=O)C(c3ccc4c(c3)OCO4)C2)c1=O (stereo not given),inactive: 97.5%
4,CCC(=O)N1N=C(c2c(O)[nH]c(=S)n(C)c2=O)CC1c1cc(OC)ccc1OC (stereo not given),inactive: 74.4%
5,COC(=O)c1ccc(C(=O)OC)c(NC(=O)c2cccn(Cc3ccc(C)cc3)c2=O)c1,inactive: 103%
6,O=C1NC(=S)NC(=O)C1=Cc1ccc(-c2cc(Cl)ccc2Cl)o1,inactive: 23.5%
7,CCC(=O)N1N=C(c2c(O)n(C)c(=S)n(C)c2=O)CC1c1ccc(N(CC)CC)cc1 (stereo not given),inactive: 96.3%
8,CN(CCC#N)c1ccc(C=C2C(=O)NC(=S)NC2=O)cc1,inactive: 118%
9,O=C(c1cccnc1)N1Cc2ccccc2-n2cccc2C1c1cc(F)cc(F)c1 (stereo not given),inactive: 82.1%
10,O=C(c1ncoc1-c1ccc(F)cc1)N1CC2CC(C1)c1cccc(=O)n1C2 (stereo not given),inactive: 108%
11,O=C1NC(=S)NC(=O)C1=CNc1ccc(Cl)cc1C(=O)c1ccccc1,inactive: 89.2%
12,Cc1nc2nc(-c3ccc(C(C)(C)C)cc3)nn2c(C)c1CC(=O)N1CCN(CCO)CC1,inactive: 110%
13,O=C(Nc1ccncc1)c1cccn(Cc2ccccc2F)c1=O,inactive: 49%
14,CC1Oc2ccc(S(=O)(=O)N3CC4CC(C3)c3cccc(=O)n3C4)cc2NC1=O (stereo not given),inactive: 88.2%
15,Cc1ccc(-c2ccc(C=C3C(=O)NC(=O)NC3=O)o2)cc1,inactive: 78.5%
16,COc1ccc(OC)c(N2C(=O)NC(=O)/C(=C\c3ccco3)C2=O)c1,inactive: 109%
17,COc1ccc(C=C2C(=O)NC(=O)NC2=O)cc1OC,inactive: 101%
18,CC(=O)c1cccc(NC(=O)N2CCC3(CC2)OCCO3)c1,inactive: 98%
19,O=C1NC(=O)C(=CNc2ccccc2C(=O)c2ccccc2)C(=O)N1,inactive: 105%
20,CC(=O)N1N=C(c2c(O)n(C)c(=S)n(C)c2=O)CC1c1ccc(C(C)C)cc1 (stereo not given),inactive: 94.2%

row,SMILES,intracellular bacterial bioluminescence
1,CC(=O)C1(c2ccccc2)CCN(C(=O)c2ncoc2-c2ccc(F)cc2)CC1,inactive: 122%
2,O=C(c1ccccc1)c1cc(Cl)ccc1NC(=O)c1coc2ccccc2c1=O,inactive: 111%
3,Cc1nnc(N2CCNCC2)c2nn(-c3ccccc3)c(C)c12,inactive: 93.5%
4,CCCCn1c(=S)[nH]c(O)c(C2=NN(C(=O)CC)C(c3ccc(N(CC)CC)cc3)C2)c1=O (stereo not given),inactive: 107%
5,Cc1ccc(N2C(=O)NC(=O)/C(=C/c3cn(C)c4ccccc34)C2=O)cc1,inactive: 112%
6,CCS(=O)(=O)c1cccc(C(=O)Nc2ccc(Cl)cc2C(=O)c2ccccc2)c1,inactive: 104%
7,Cc1cc(O)c(C(=O)Nc2cccc(Cl)c2)c(=O)n1CC1CCCO1 (stereo not given),inactive: 120%
8,O=C1NC(=O)C(=Cc2ccc(-c3cccc([N+](=O)[O-])c3)o2)C(=O)N1,inactive: 50.5%
9,Cc1ccccc1-c1ncccc1C(=O)N1CCC(C(=O)N2CCC3(CC2)OCCO3)CC1,inactive: 84.9%
10,O=C1CN=C(c2ccc(F)cc2)c2cc(F)ccc2N1,inactive: 94.9%
11,COC(=O)C1=C(N)Oc2cc(C)n(CC3CCCO3)c(=O)c2C12C(=O)Nc1ccccc12 (stereo not given),inactive: 118%
12,O=C1NC(=S)NC(=O)C1=Cc1nc(-c2ccc(Cl)cc2)n2ccccc12,inactive: 82.1%
13,Nc1c(C(=O)OC2CCCCC2)c2nc3ccccc3nc2n1Cc1ccco1,inactive: 15.9%
14,Cn1cnc([N+](=O)[O-])c1Sc1ccc([N+](=O)[O-])cc1,inactive: 46.8%
15,O=C1NC(=O)C(=Cc2nc(-c3ccccc3Cl)n3ccccc23)C(=O)N1,inactive: 81.8%
16,CC1=CC(=C2C(=O)NC(=S)NC2=O)C=C(C)N1Cc1ccco1,inactive: 91.6%
17,O=C1NC(=O)C(=NNc2ccc(OC(F)F)cc2)C(=O)N1,inactive: 106%
18,CC(C)OCCCn1c(N)c(C(=O)OCC2CCCO2)c2nc3ccccc3nc21 (stereo not given),inactive: 47.1%
19,CS(=O)(=O)c1ccccc1C(=O)Nc1ccc(Cl)cc1C(=O)c1ccccc1Cl,inactive: 87.1%
20,CC1C(C#N)=C(N)Oc2c1c(=O)oc1ccccc21 (stereo not given),inactive: 139%

# Reformatted as tab-separated lines: part of the list above.
row	SMILES	intracellular bacterial bioluminescence
6	O=C1NC(=S)NC(=O)C1=Cc1ccc(-c2cc(Cl)ccc2Cl)o1	inactive: 23.5%
9	O=C(c1cccnc1)N1Cc2ccccc2-n2cccc2C1c1cc(F)cc(F)c1 (stereo not given)	inactive: 82.1%
11	O=C1NC(=S)NC(=O)C1=CNc1ccc(Cl)cc1C(=O)c1ccccc1	inactive: 89.2%
15	Cc1ccc(-c2ccc(C=C3C(=O)NC(=O)NC3=O)o2)cc1	inactive: 78.5%
2	O=C(c1ccccc1)c1cc(Cl)ccc1NC(=O)c1coc2ccccc2c1=O	inactive: 111%
6	CCS(=O)(=O)c1cccc(C(=O)Nc2ccc(Cl)cc2C(=O)c2ccccc2)c1	inactive: 104%
7	Cc1cc(O)c(C(=O)Nc2cccc(Cl)c2)c(=O)n1CC1CCCO1 (stereo not given)	inactive: 120%
8	O=C1NC(=O)C(=Cc2ccc(-c3cccc([N+](=O)[O-])c3)o2)C(=O)N1	inactive: 50.5%
9	Cc1ccccc1-c1ncccc1C(=O)N1CCC(C(=O)N2CCC3(CC2)OCCO3)CC1	inactive: 84.9%
12	O=C1NC(=S)NC(=O)C1=Cc1nc(-c2ccc(Cl)cc2)n2ccccc12	inactive: 82.1%
14	Cn1cnc([N+](=O)[O-])c1Sc1ccc([N+](=O)[O-])cc1	inactive: 46.8%
18	CC(C)OCCCn1c(N)c(C(=O)OCC2CCCO2)c2nc3ccccc3nc21 (stereo not given)	inactive: 47.1%
